This passage reports binding results from article doi:10.1101/2022.06.17.496577.

Protein sequences, listed by entry. Tags and fused reporters are not part of them.
UniProt Q96JI7: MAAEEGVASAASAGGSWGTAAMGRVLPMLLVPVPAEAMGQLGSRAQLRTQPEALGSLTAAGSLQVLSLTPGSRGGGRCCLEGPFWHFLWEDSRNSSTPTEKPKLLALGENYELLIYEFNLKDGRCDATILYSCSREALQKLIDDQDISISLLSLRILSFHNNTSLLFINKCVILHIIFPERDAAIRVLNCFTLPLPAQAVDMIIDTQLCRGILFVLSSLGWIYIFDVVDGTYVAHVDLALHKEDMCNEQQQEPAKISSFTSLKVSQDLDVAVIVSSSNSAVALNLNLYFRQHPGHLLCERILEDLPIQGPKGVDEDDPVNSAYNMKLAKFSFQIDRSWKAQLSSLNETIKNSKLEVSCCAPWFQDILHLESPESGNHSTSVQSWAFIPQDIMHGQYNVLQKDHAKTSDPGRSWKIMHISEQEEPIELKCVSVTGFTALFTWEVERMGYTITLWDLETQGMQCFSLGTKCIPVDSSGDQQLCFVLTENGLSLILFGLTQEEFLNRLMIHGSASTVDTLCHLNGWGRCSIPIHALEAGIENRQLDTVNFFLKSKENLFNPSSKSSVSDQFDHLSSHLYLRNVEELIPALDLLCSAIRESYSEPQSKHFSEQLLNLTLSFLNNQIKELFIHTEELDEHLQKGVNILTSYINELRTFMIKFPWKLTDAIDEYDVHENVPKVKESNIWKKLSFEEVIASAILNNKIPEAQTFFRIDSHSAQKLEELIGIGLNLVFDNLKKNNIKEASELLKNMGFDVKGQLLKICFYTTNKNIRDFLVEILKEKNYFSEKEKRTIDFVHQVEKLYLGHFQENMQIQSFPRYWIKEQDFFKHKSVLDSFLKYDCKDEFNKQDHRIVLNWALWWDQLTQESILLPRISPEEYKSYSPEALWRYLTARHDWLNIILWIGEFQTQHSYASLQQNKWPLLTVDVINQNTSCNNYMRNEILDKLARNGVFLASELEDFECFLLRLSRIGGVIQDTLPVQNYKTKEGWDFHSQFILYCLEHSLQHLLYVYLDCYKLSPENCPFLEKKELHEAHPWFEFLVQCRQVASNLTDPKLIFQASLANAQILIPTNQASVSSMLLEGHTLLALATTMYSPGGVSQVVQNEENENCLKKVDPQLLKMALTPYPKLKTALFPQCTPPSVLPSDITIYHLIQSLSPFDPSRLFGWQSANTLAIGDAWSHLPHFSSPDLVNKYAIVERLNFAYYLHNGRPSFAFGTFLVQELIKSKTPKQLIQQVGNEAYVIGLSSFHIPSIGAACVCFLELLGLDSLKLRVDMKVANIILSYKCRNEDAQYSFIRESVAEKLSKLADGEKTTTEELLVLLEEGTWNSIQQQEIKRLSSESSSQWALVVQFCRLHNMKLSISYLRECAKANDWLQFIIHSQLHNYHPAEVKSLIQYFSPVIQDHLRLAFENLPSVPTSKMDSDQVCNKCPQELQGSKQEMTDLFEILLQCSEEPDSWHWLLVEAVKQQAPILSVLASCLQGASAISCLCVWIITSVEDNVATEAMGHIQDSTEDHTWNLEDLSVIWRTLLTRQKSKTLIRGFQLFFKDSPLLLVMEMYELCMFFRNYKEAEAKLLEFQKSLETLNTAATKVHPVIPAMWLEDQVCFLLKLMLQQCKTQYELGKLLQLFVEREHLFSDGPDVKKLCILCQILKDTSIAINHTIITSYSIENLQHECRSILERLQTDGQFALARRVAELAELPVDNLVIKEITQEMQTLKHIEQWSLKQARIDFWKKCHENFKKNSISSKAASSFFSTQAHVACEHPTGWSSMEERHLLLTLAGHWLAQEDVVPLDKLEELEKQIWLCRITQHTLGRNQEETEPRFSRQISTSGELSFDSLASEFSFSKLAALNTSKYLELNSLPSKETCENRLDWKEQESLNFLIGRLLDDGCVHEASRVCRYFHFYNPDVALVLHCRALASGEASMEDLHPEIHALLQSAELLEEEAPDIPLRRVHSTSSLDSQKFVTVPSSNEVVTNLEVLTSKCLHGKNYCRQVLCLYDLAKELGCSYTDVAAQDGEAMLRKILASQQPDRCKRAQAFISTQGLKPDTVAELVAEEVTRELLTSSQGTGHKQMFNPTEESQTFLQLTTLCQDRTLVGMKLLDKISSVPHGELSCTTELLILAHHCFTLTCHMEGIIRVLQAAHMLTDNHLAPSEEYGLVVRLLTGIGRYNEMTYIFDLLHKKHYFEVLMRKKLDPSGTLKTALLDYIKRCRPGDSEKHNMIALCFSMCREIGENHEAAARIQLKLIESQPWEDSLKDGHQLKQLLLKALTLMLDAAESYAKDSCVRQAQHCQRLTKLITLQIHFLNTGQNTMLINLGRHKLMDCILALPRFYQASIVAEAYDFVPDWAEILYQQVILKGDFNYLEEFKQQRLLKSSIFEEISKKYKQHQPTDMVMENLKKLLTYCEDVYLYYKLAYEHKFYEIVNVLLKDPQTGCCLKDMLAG
UniProt O08788: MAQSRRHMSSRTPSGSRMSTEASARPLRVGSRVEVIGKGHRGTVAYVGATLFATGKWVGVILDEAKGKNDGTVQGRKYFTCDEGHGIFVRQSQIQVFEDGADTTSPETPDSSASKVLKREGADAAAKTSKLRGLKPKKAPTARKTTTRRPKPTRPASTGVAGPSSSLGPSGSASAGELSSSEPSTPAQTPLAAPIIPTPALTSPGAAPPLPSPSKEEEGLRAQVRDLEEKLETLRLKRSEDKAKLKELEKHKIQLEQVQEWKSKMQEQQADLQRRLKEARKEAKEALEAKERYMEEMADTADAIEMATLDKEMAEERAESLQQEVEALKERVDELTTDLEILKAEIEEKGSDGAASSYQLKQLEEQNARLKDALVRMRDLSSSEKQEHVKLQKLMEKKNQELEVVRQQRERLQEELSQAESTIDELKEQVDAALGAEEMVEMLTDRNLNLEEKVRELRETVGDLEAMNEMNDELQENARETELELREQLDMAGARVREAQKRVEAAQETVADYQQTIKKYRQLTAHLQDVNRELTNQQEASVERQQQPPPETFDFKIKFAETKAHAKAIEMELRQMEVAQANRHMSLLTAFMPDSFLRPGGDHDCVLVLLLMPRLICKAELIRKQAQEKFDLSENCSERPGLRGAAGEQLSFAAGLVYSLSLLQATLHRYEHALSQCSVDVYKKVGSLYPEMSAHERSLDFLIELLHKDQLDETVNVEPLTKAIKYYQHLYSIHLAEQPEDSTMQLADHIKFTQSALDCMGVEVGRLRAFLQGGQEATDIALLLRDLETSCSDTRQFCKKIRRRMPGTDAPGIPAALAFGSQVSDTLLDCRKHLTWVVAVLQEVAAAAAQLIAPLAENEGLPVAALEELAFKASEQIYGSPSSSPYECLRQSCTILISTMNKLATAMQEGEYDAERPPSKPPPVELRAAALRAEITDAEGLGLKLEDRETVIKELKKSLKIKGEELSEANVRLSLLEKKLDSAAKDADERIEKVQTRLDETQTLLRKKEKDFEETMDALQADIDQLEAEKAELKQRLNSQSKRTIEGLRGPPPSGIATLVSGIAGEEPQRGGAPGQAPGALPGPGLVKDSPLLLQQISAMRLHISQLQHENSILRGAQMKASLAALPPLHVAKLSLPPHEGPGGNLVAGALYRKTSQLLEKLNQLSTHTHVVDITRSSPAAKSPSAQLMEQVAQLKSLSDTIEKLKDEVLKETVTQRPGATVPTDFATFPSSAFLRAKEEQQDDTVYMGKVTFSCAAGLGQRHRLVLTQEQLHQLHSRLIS
UniProt Q5DU37: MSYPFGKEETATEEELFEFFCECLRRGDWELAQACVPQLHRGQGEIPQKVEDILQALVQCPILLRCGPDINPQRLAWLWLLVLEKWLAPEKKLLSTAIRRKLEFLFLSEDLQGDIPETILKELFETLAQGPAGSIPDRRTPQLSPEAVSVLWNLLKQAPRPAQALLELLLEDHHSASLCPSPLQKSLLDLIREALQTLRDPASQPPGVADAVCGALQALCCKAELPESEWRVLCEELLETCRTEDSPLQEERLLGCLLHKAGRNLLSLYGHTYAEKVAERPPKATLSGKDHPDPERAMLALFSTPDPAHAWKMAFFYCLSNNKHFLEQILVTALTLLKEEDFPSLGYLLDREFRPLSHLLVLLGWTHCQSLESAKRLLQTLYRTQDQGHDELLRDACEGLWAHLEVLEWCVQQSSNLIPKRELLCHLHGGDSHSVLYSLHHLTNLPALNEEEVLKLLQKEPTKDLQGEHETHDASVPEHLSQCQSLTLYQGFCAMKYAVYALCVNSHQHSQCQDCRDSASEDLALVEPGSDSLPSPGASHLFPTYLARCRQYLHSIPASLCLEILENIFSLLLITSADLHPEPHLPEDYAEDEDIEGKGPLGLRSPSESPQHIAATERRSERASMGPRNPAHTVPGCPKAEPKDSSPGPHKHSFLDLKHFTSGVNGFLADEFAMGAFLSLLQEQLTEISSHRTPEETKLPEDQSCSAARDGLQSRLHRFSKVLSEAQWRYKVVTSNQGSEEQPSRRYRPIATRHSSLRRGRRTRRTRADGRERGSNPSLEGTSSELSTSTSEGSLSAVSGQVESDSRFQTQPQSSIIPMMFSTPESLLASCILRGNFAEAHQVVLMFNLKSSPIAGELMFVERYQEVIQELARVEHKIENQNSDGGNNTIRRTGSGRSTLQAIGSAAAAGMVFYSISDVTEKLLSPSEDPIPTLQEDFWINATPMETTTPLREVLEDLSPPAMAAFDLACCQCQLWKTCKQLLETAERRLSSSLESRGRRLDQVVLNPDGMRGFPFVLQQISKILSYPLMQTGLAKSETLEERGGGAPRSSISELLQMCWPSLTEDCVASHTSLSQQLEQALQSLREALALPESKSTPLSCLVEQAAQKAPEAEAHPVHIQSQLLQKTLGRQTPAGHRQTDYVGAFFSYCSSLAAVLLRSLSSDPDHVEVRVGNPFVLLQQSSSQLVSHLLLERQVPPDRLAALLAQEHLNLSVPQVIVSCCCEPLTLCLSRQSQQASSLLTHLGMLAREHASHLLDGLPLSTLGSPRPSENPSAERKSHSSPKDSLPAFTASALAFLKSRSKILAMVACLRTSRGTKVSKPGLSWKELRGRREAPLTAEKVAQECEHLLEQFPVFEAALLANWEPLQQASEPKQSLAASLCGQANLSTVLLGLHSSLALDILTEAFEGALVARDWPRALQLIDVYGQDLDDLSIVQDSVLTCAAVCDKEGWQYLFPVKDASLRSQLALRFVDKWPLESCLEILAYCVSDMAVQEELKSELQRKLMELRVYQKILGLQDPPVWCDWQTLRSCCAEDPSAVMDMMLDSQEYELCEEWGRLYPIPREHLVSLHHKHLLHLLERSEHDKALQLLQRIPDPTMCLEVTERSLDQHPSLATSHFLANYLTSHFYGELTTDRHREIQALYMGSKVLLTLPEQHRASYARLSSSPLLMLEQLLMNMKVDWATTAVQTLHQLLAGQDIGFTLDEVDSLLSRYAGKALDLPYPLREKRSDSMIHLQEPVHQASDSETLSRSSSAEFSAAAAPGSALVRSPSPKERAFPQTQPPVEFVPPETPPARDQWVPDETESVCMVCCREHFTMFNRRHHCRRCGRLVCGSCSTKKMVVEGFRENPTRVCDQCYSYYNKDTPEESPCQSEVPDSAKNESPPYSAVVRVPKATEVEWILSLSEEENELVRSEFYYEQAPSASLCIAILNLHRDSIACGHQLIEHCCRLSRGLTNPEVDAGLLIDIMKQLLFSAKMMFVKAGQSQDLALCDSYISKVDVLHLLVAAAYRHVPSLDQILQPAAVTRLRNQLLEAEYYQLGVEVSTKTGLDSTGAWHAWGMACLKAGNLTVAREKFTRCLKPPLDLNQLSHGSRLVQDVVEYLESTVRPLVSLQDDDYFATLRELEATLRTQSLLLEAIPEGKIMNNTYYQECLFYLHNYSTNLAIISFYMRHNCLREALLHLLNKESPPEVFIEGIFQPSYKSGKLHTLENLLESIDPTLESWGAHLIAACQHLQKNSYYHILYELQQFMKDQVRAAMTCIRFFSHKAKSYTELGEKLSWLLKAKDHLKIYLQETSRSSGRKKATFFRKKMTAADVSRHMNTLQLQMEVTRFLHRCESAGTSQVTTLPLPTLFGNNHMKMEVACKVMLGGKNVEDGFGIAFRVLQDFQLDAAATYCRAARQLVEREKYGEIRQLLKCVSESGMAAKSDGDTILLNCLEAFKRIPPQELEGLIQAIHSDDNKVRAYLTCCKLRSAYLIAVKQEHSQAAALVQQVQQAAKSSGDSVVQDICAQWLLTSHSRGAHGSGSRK

The target of one assay is T1, GFP-AP5Z1 (UniProt O43299).
T1 sequence: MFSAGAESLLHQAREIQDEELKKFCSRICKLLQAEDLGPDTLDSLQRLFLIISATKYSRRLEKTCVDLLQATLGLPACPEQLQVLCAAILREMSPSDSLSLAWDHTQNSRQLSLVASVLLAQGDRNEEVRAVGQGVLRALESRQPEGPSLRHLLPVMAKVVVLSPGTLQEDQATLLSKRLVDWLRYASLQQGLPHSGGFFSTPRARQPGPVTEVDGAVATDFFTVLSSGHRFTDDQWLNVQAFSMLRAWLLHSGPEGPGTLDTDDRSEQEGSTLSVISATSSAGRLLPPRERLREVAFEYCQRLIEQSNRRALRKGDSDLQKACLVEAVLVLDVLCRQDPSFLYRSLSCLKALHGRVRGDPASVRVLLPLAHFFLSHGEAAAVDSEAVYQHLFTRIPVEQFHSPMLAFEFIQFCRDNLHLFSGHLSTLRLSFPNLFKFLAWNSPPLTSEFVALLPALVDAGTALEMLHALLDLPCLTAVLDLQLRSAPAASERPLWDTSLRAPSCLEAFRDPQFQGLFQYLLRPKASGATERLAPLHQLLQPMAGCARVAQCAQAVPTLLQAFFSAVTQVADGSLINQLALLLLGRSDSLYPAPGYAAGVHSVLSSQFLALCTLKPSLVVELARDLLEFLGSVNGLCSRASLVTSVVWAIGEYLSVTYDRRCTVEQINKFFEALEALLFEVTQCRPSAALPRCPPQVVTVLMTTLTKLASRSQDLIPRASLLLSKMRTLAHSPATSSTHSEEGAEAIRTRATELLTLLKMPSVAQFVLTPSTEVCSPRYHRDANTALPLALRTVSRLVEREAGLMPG
The assay is described as follows: co-IP.

A further assay deals with spatacsin-GFP (human) (UniProt Q96JI7). Put plainly: co-IP.
Another assay has as its target spatacsin-V5 (human) (UniProt Q96JI7). Put plainly: proximity ligation.

These are yes or no findings as the source states them, for the method shown. In cells and extracts the contact can be indirect. Some binding calls cover weakened binding; strength is not graded here. For some assays here: Where a sequence is shown, tags or fusion partners need not be part of it.

Regarding “p150^Glued (dynein/dynactin subunit) (from UniProt O08788 1-1281)”, the binding entry with GFP-AP5Z1 is “binds”.
Consider “spastizin (endogenous in MEFs) (from UniProt Q5DU37 1-2529)”, for which, in the assay with spatacsin-GFP (human), the binding result was “binds”.
On to “spastizin-HA (from UniProt Q68DK2 1-2539)”, for which the binding result with spatacsin-V5 (human) is reported as “binds”.

B1: AP5Z1, overexpressed (Figure 5D) (protein, UniProt O43299 1-807)
chain: MFSAGAESLLHQAREIQDEELKKFCSRICKLLQAEDLGPDTLDSLQRLFLIISATKYSRRLEKTCVDLLQATLGLPACPEQLQVLCAAILREMSPSDSLSLAWDHTQNSRQLSLVASVLLAQGDRNEEVRAVGQGVLRALESRQPEGPSLRHLLPVMAKVVVLSPGTLQEDQATLLSKRLVDWLRYASLQQGLPHSGGFFSTPRARQPGPVTEVDGAVATDFFTVLSSGHRFTDDQWLNVQAFSMLRAWLLHSGPEGPGTLDTDDRSEQEGSTLSVISATSSAGRLLPPRERLREVAFEYCQRLIEQSNRRALRKGDSDLQKACLVEAVLVLDVLCRQDPSFLYRSLSCLKALHGRVRGDPASVRVLLPLAHFFLSHGEAAAVDSEAVYQHLFTRIPVEQFHSPMLAFEFIQFCRDNLHLFSGHLSTLRLSFPNLFKFLAWNSPPLTSEFVALLPALVDAGTALEMLHALLDLPCLTAVLDLQLRSAPAASERPLWDTSLRAPSCLEAFRDPQFQGLFQYLLRPKASGATERLAPLHQLLQPMAGCARVAQCAQAVPTLLQAFFSAVTQVADGSLINQLALLLLGRSDSLYPAPGYAAGVHSVLSSQFLALCTLKPSLVVELARDLLEFLGSVNGLCSRASLVTSVVWAIGEYLSVTYDRRCTVEQINKFFEALEALLFEVTQCRPSAALPRCPPQVVTVLMTTLTKLASRSQDLIPRASLLLSKMRTLAHSPATSSTHSEEGAEAIRTRATELLTLLKMPSVAQFVLTPSTEVCSPRYHRDANTALPLALRTVSRLVEREAGLMPG
Take B1: the binding entry with spatacsin-GFP (human) was “binds”.

B2: AP5Z1 (endogenous in MEFs) (protein, UniProt Q3U829 1-807)
chain: MFSAGAESLLHQAREIQDEELRRFCSRVTKLLQEAPGPATVDALQRLFLIVSATKYPRRLEKMCVDLLQTTLCLPASPEQLQVLCAAILREMSPFNDLALSCDHTPNTRQLSLVASVLLAQGDRKGEIRCVSQRIFKILENRQPEGPSVRPLLPILSKVIGLAPGILMEDQTNLLSKRLVDWLRYASIQQGLPYSGGFFSTPRTRQPGPITEVDGAVASDFFTVLSTGQHFTEDQWVNMQAFSMLRKWLLHSGPEDPCSPDADDKSELEGSTLSVLSAASTASRLLPPRERLREVAFEYCQRLLEQSNRRALRKGDSDLQKACLVEAVSVLDVLCRQDPSFLYRTLSCLKALHRRLGEDPGSERALVPLAQFFLNHGEAAAMDAEAVYGQLLRGLPSERFHSPTLAFEVIHFCTHNLALFDSHFLSLLRLSFPSLFKFLAWNSPPLTAEFVVLLPALVDAGTAVEMLHALLDLPCLTAALDLQLRSTQTPSERLLWDISLRVPSCLEAFQDPQFQGLFRHLLRTKASGSTERLTPLHQVLKPMASCARVTQCAEAVPVLLQAFFSAVTQTADGALINQLALLLLERSDSLYPVPQYEARVHGVLSSQLLVLCKLKPSLVVELSRELLEFVGSVSSIHSRASVFTCVVWAIGEYLSVTWDKRCTAEQINKFFEALEALLFEVTQSRPLADLPCCPPEVVTALMTTLTKLASRSQDLIPRVSLFLSKMRTLAQNPATSSVHSEEGAESIRTRASELLTLLKMPSVAQFVFTPPAGVCQPRYHRDTNVALPLALRTVSRLVEKEAGLLPG
For B2, the binding entry with spatacsin-GFP (human) is given as “binds”.
